Source: PubChem BioAssay AID602196 (INSERM, 2012)
Screen: 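Genes whose knock-down alters cisplatin killing of lung cancer cells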. System: human A549 lung cancer cells. Knock-down reagent: siRNA pair against human genes. Time to read-out: 48 h transfection before cisplatin; time from cisplatin to read-out not stated. Challenge: cisplatin at a dose killing half of control-siRNA cells; exact dose and duration not given. Detection: 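Shift in cisplatin death relative to control siRNA, from -50 (all cells die) to +50 (no cells die); siRNAs harmful on their own scored 0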. Scale: two-siRNA summed score (-2 to +2): higher = both siRNAs protect from cisplatin killing; -2 means both sensitise; mean protection from cisplatin (shift in death) and protection from cisplatin (shift in death), siRNA C and protection from cisplatin (shift in death), siRNA D: higher = protection from cisplatin killing. Hit rule: 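siRNAs harmful alone (LDH or WST-1) get 0; others get +1 for less and -1 for more cisplatin killing; genes are active when the two siRNAs give the same sign, summing to ±2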. Calls: active = both siRNAs shift cisplatin killing the same way; inactive = no consistent shift, or siRNA harmful alone.
In all, the deposit lists about 23,000 reagents; below is a part drawn at random. 455 of them (2%) were called active. 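Active includes both protection and sensitisation; some change values fall well beyond the stated -50 to +50 range.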 The numbers tell different reagents against one gene apart. The record does not give: the amount of reagent.

Target gene | reagent no. | two-siRNA summed score (-2 to +2) | mean protection from cisplatin (shift in death) (%) | protection from cisplatin (shift in death), siRNA C (%) | protection from cisplatin (shift in death), siRNA D (%) | Outcome
LGI2 (leucine rich repeat LGI family member 2) | 1 | 0 | 9.8 | 8.8 | 10.8 | inactive
KLK3 (kallikrein related peptidase 3) | 1 | -1 | -17.4 | -0.3 | -34.5 | inactive
C2CD4B (C2 calcium dependent domain containing 4B) | 1 | 1 | 17.3 | 22.2 | 12.5 | inactive
RUNDC1 (RUN domain containing 1) | 1 | 0 | 6.9 | 13.5 | 0.3 | inactive
LOC402037 | 1 | -1 | -9.3 | -10.5 | -8.2 | inactive
ARHGAP44 (Rho GTPase activating protein 44) | 1 | 0 | 2.1 | 4.1 | 0 | inactive
LOC441708 | 1 | 0 | 1.1 | -1.7 | 3.8 | inactive
PRR15L (proline rich 15 like) | 1 | 1 | 13.8 | 7.2 | 20.3 | inactive
PLCXD2 | 1 | 1 | 7.1 | 14.7 | -0.5 | inactive
CLEC11A (C-type lectin domain containing 11A) | 1 | 0 | 8.3 | 7.4 | 9.3 | inactive
SLC35D3 | 1 | 0 | 6.2 | 17.9 | -5.6 | inactive
FBXO40 (F-box protein 40) | 1 | -1 | -38.9 | -51.5 | -26.3 | inactive
UGT2A3 (UDP glucuronosyltransferase family 2 member A3) | 1 | 0 | -5.7 | -7.9 | -3.4 | inactive
GCNA (germ cell nuclear acidic peptidase) | 1 | 0 | -11.5 | -7.4 | -15.5 | inactive
MMP16 (matrix metallopeptidase 16) | 1 | -1 | -23.6 | -15.6 | -31.6 | inactive
FRMD4B (FERM domain containing 4B) | 1 | 1 | 17.8 | 12.7 | 22.9 | inactive
AAMP (angio associated migratory cell protein) | 1 | 0 | 9.8 | 16.1 | 3.5 | inactive
EXOC6 (exocyst complex component 6) | 1 | 0 | -1.1 | 7.6 | -9.8 | inactive
EXOC6 (exocyst complex component 6) | 2 | 0 | 2.5 | 10.6 | -5.6 | inactive
LOC387854 | 1 | 1 | 5.6 | -20.2 | 31.4 | inactive
ZNF480 (zinc finger protein 480) | 1 | 0 | 8.3 | 7.5 | 9.1 | inactive
ARRDC1-AS1 (ARRDC1 antisense RNA 1) | 1 | 0 | 11.2 | 13.6 | 8.7 | inactive
CCDC106 (coiled-coil domain containing 106) | 1 | 1 | 6.6 | 3.9 | 9.2 | inactive
SMIM34 (small integral membrane protein 34) | 1 | 0 | 3.5 | 0.4 | 6.6 | inactive
LARGE1 (LARGE xylosyl- and glucuronyltransferase 1) | 1 | -1 | -9.9 | 11.7 | -31.6 | inactive
ADORA1 (adenosine A1 receptor) | 1 | -1 | -17.8 | -20.2 | -15.3 | inactive
HELB (DNA helicase B) | 1 | 0 | -10.4 | -12.6 | -8.2 | inactive
UTS2 (urotensin 2) | 1 | 1 | 15.1 | 19 | 11.3 | inactive
SLC14A2 | 1 | 0 | 5 | 5.7 | 4.4 | inactive
NOL9 (nucleolar protein 9) | 1 | 0 | 3.8 | 5.5 | 2.1 | inactive
LOC441179 | 1 | 1 | 13.7 | 1.9 | 25.4 | inactive
LOC283583 | 1 | 0 | 15.9 | 7.8 | 24 | inactive
WAC (WW domain containing adaptor with coiled-coil) | 1 | 1 | 12.3 | 29.9 | -5.3 | inactive
FNDC1 (fibronectin type III domain containing 1) | 1 | 0 | 7.9 | 13.7 | 2 | inactive
VHLL (VHL like) | 1 | 0 | 8.3 | 5.4 | 11.1 | inactive
RBM14 (RNA binding motif protein 14) | 1 | -1 | -12.6 | 0.4 | -25.6 | inactive
RBM14 (RNA binding motif protein 14) | 2 | 0 | 15 | 18.4 | 11.5 | inactive
ELMO1 (engulfment and cell motility 1) | 1 | 0 | 13.9 | 1.3 | 26.4 | inactive
SLC30A4 | 1 | 0 | 4.3 | 9.3 | -0.6 | inactive
KIZ (kizuna centrosomal protein) | 1 | 1 | 7.5 | -19.5 | 34.5 | inactive
TLE1 (TLE family member 1, transcriptional corepressor) | 1 | 0 | -4.1 | 2.1 | -10.4 | inactive
ANKRD20A8P (ankyrin repeat domain 20 family member A8, pseudogene) | 1 | 1 | 17 | 25 | 9 | inactive
RPRD1A (regulation of nuclear pre-mRNA domain containing 1A) | 1 | 0 | 5.1 | -3.7 | 14 | inactive
ITGA2 (integrin subunit alpha 2) | 1 | 0 | 8.8 | 29.5 | -11.9 | inactive
GUCY1A1 (guanylate cyclase 1 soluble subunit alpha 1) | 1 | -1 | -10.2 | -7.7 | -12.7 | inactive
TPSG1 (tryptase gamma 1) | 1 | 1 | 5.7 | 18.6 | -7.1 | inactive
SPON2 (spondin 2) | 1 | 2 | 17.9 | 17.1 | 18.8 | active
LOC440771 | 1 | 1 | 9.9 | 18.3 | 1.5 | inactive
LOC388720 | 1 | 1 | 19.9 | 17 | 22.8 | inactive
HSF4 (heat shock transcription factor 4) | 1 | 0 | -21.2 | -13 | -29.4 | inactive
GFRA2 (GDNF family receptor alpha 2) | 1 | -1 | -7.4 | 5.1 | -19.9 | inactive
LIMK1 (LIM domain kinase 1) | 1 | 1 | 3.8 | -1.1 | 8.8 | inactive
LOC441798 | 1 | 0 | 7 | 8.3 | 5.7 | inactive
PPP1R2C (PPP1R2 family member C) | 1 | 0 | -2 | -7.7 | 3.7 | inactive
PCF11 (PCF11 cleavage and polyadenylation factor subunit) | 1 | 0 | 10.6 | -4.7 | 25.8 | inactive
LOC392979 | 1 | 0 | 10.2 | 14.8 | 5.7 | inactive
PCDHB7 (protocadherin beta 7) | 1 | 0 | -2.5 | 7.9 | -12.8 | inactive

Active calls (from the list above):
Target gene | reagent no. | two-siRNA summed score (-2 to +2) | mean protection from cisplatin (shift in death) (%) | protection from cisplatin (shift in death), siRNA C (%) | protection from cisplatin (shift in death), siRNA D (%) | Outcome
SPON2 (spondin 2) | 1 | 2 | 17.9 | 17.1 | 18.8 | active
